Source: PubChem BioAssay AID652243 (Drosophila RNAi Screening Center, 2013)
The screen tested about 24,000 reagents; below is an unselected part of those that have a named target and a result. In the full data, 246 (1%) got an active call. 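Plates not normalised; calls are printed but the firefly/Renilla ratio behind them is not deposited; fold cut for lowering reported inconsistently.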 Raw values are not corrected between plates. A number with no mark means an inactive call. A plus sign joins genes that one reagent is predicted to hit. The record does not give: the amount of reagent.

Aim: 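Knock-downs that decrease or increase androgen receptor reporter signal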 (primary screen)
Cells: Drosophila S2R+ cells
Reagents: long dsRNA against Drosophila genes
Timing: 72 h (48 h, then 24 h hormone)
Challenge: synthetic androgen R1881 at 10 nM for 24 h
Measured: 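Per-well raw luminescence of the androgen-driven firefly reporter and of the Renilla control, two replicates each, without normalisation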
Direction: firefly reporter light: higher = more light from androgen-responsive reporter; Renilla control light: higher = more constitutive control signal (cell number, transfection)
Hit rule: 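Across duplicate plates, a knock-down whose log firefly/Renilla ratio shifted a set fold down or up from the GFP/LacZ control mean was a hit; the downward cut appears as both 1.5 and 3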
Meaning of the calls: active = hit: reporter lowered or raised; inactive = no hit

CG42269 [DRSC10670] → firefly reporter light, replicate 1 = 1.02e5; firefly reporter light, replicate 2 = 95618; Renilla control light, replicate 1 = 1.00e6; Renilla control light, replicate 2 = 1.33e6
CG42269 [DRSC10672] → firefly reporter light, replicate 1 = 1.07e5; firefly reporter light, replicate 2 = 1.02e5; Renilla control light, replicate 1 = 1.05e6; Renilla control light, replicate 2 = 1.14e6
CG42269 [DRSC24477] → firefly reporter light, replicate 1 = 9.18e5; firefly reporter light, replicate 2 = 9.03e5; Renilla control light, replicate 1 = 9.39e5; Renilla control light, replicate 2 = 1.01e6
CG42269 [DRSC26685] → firefly reporter light, replicate 1 = 2.63e5; firefly reporter light, replicate 2 = 2.81e5; Renilla control light, replicate 1 = 3.21e5; Renilla control light, replicate 2 = 3.58e5
E(spl)m4-BFM [DRSC16992] → firefly reporter light, replicate 1 = 2.39e5; firefly reporter light, replicate 2 = 1.68e5; Renilla control light, replicate 1 = 2.36e6; Renilla control light, replicate 2 = 2.23e6
E(spl)m4-BFM [DRSC27642] → firefly reporter light, replicate 1 = 1.93e5; firefly reporter light, replicate 2 = 2.51e5; Renilla control light, replicate 1 = 5.46e5; Renilla control light, replicate 2 = 7.53e5
Yip1d1 [DRSC02166] → firefly reporter light, replicate 1 = 3.31e5; firefly reporter light, replicate 2 = 2.74e5; Renilla control light, replicate 1 = 2.11e6; Renilla control light, replicate 2 = 2.17e6
CG33337 [DRSC13632] → firefly reporter light, replicate 1 = 4.94e5; firefly reporter light, replicate 2 = 4.55e5; Renilla control light, replicate 1 = 3.01e6; Renilla control light, replicate 2 = 2.14e6
CG33337 [DRSC27000] → firefly reporter light, replicate 1 = 3.80e5; firefly reporter light, replicate 2 = 2.67e5; Renilla control light, replicate 1 = 1.12e6; Renilla control light, replicate 2 = 5.93e5
CG33666 + CG33669 + CG33668 + 3 more [DRSC37820] → firefly reporter light, replicate 1 = 1.00e6; firefly reporter light, replicate 2 = 9.97e5; Renilla control light, replicate 1 = 1.77e6; Renilla control light, replicate 2 = 1.61e6
Prp8 [DRSC07293] → firefly reporter light, replicate 1 = 6.81e5; firefly reporter light, replicate 2 = 7.40e5; Renilla control light, replicate 1 = 1.60e6; Renilla control light, replicate 2 = 1.56e6
CG13539 [DRSC04181] → firefly reporter light, replicate 1 = 1.87e5; firefly reporter light, replicate 2 = 2.17e5; Renilla control light, replicate 1 = 1.19e6; Renilla control light, replicate 2 = 1.39e6
CG13539 [DRSC28683] → firefly reporter light, replicate 1 = 5.63e5; firefly reporter light, replicate 2 = 4.24e5; Renilla control light, replicate 1 = 1.60e6; Renilla control light, replicate 2 = 1.48e6
